From ChEMBL document CHEMBL3988442, “University of Dundee, Small-Polar-MMV Screening Library” (2021).

T. brucei: 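Whole-parasite assay of Trypanosoma brucei over 72 hours; the read-out is not stated. Compounds at 30 µM. Direction is inferred from retests: higher values go with stronger inhibition. Values scatter widely below zero; nearly all retest evidence comes from the higher of the two concentrations used. About 64,000 compounds were tested under these conditions; 1.5% (about 940) showed 50% or more at least once.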
Toxoplasma: 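Assay of Toxoplasma gondii numbers, read through their beta-galactosidase reporter with a colour substrate. Compounds at 10 µM. The record gives no direction; the compounds picked for IC50 retests had high values, so higher reads as fewer parasites. About 67,000 compounds were tested under these conditions; 0.38% (about 260) showed 50% or more at least once.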
Leishmania in macrophages: 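Cell assay of Leishmania donovani living inside macrophages; the read-out is not stated. Compounds at 30 µM. Higher reads as stronger inhibition (inferred: compounds with an IC50 in retests scored well above the rest). Size under these conditions: about 69,000 compounds, about 1,000 of them at 50% or above in at least one test.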

Values are the deposited “Percent Effect”, in %.
How 0% and 100% were set is not recorded. Most values in the screen are low, and negative values occur.
Compounds were drawn at random from those tested, without regard to their results.
Two or more numbers in one place are separate tests of the same structure; such repeats can differ widely.
A dash means the value is not listed here; it may have been measured.

{"compound": "CCn1ccnc1CN1CCN(c2nc(C)cc(OC)n2)CC1", "T. brucei": -14.13, "Toxoplasma": -2.303, "Leishmania in macrophages": 15.94}
{"compound": "Cc1noc(C)c1CN1CCCC1c1nc(-c2ccccc2)no1", "stereo": "configuration not stated", "Toxoplasma": 3.743, "Leishmania in macrophages": 18.73}
{"compound": "O=C(CCn1c(C(F)(F)F)cc2cccnc21)N1CCC(O)CC1", "T. brucei": 0.3225, "Toxoplasma": -44.34, "Leishmania in macrophages": "11.08 and 29.26"}
{"compound": "Cc1cccc(C(C)CNS(=O)(=O)CCCC#N)c1", "stereo": "configuration not stated", "T. brucei": 26.54, "Toxoplasma": 13.3, "Leishmania in macrophages": 8.688}
{"compound": "O=C(C1CCOCC1)N1CCOCC(Cc2ncccn2)C1", "stereo": "configuration not stated", "Leishmania in macrophages": 22.69}
{"compound": "[H][C@]12CC[C@]([H])(CN(Cc3nnc(C4CC4)o3)C1)N(CCOC)C2=O", "T. brucei": -26.48, "Toxoplasma": 32.15, "Leishmania in macrophages": 0.3981}
{"compound": "[H][C@@]12CCN(CC(C)C)[C@@]1([H])CCN2C(=O)COC", "T. brucei": -21.02, "Toxoplasma": -8.504, "Leishmania in macrophages": "9.027 and 3.103"}
{"compound": "COc1ccc(F)cc1C(=O)N(C)[C@@H]1CC[C@@H](O)[C@@H]1O", "Leishmania in macrophages": 27.49}
{"compound": "Cc1cccc(SC2CCN(C(=O)CCCS(N)(=O)=O)CC2)c1", "T. brucei": 5.094, "Leishmania in macrophages": 24.28}
{"compound": "Cc1nc(-c2ccccc2)sc1CNC(=O)c1ccc(=O)n(C)c1", "T. brucei": 8.33, "Toxoplasma": -2.143, "Leishmania in macrophages": 4.402}
{"compound": "COc1cc(C)nc(N2CCN(C(=O)CN(C)C(C)C)CC2)n1", "Toxoplasma": 27.38, "Leishmania in macrophages": -0.6881}
{"compound": "CCc1nn(C)c(Cl)c1CN1CCCC2(C1)CN(C)C(=O)O2", "stereo": "configuration not stated", "T. brucei": -38.6, "Toxoplasma": -1.489, "Leishmania in macrophages": 12.54}
{"compound": "CCN(CC)CCn1c(NC(=O)c2scnc2C)nc2ccccc21", "Toxoplasma": -28.1, "Leishmania in macrophages": 12.69}
{"compound": "O=C(Nc1cccnc1)Nc1ccn(CC(F)F)n1", "T. brucei": -43.84, "Toxoplasma": 2.481, "Leishmania in macrophages": 33.86}
{"compound": "CN(Cc1c[nH]nc1-c1ccc(F)cc1F)Cc1nccn1C", "T. brucei": -52.04, "Toxoplasma": -9.613, "Leishmania in macrophages": -14.31}
{"compound": "Cc1[nH]c(=O)[nH]c(=O)c1CN1CCCC(CCc2c(F)cccc2F)C1", "stereo": "configuration not stated", "T. brucei": -3.135, "Toxoplasma": -2.077, "Leishmania in macrophages": 41.59}
{"compound": "CCN(CC1CCOC1)C(=O)c1ccccc1S(C)(=O)=O", "stereo": "configuration not stated", "T. brucei": -4.335, "Toxoplasma": -26.85, "Leishmania in macrophages": -7.313}
{"compound": "CC(=O)NC1CCCN(c2ccc(C#N)cc2C(F)(F)F)C1", "stereo": "configuration not stated", "T. brucei": 8.948, "Toxoplasma": -0.9363, "Leishmania in macrophages": 13.64}
{"compound": "[H][C@]12CC[C@](O)(c3ccccc3F)[C@@]1([H])CN(C(=O)c1cc(C3CC3)on1)C2", "T. brucei": -13.36, "Toxoplasma": 25.55, "Leishmania in macrophages": -21.36}
{"compound": "CN(CC(=O)NS(=O)(=O)c1cccs1)Cc1ccccc1", "T. brucei": -59.73, "Toxoplasma": 6.852, "Leishmania in macrophages": -5.504}
{"compound": "CCNC(=O)NC(=O)CN1CCC(c2c[nH]c3ccc(OC)cc23)CC1", "T. brucei": -8.22, "Leishmania in macrophages": 27.93}

The last 2 entries again:

| compound | T. brucei | Toxoplasma | Leishmania in macrophages |
|---|---|---|---|
| `CN(CC(=O)NS(=O)(=O)c1cccs1)Cc1ccccc1` | -59.73 | 6.852 | -5.504 |
| `CCNC(=O)NC(=O)CN1CCC(c2c[nH]c3ccc(OC)cc23)CC1` | -8.22 | - | 27.93 |